Experimental data published in article PMC8508526 (Cancers, 2021).
Results are given in words; binding and its absence hold for the method and conditions named.

The chains behind the UniProt entries cited, without tags or fusion partners. Residues count along the entry.
UniProt P35441, residues 19-1170: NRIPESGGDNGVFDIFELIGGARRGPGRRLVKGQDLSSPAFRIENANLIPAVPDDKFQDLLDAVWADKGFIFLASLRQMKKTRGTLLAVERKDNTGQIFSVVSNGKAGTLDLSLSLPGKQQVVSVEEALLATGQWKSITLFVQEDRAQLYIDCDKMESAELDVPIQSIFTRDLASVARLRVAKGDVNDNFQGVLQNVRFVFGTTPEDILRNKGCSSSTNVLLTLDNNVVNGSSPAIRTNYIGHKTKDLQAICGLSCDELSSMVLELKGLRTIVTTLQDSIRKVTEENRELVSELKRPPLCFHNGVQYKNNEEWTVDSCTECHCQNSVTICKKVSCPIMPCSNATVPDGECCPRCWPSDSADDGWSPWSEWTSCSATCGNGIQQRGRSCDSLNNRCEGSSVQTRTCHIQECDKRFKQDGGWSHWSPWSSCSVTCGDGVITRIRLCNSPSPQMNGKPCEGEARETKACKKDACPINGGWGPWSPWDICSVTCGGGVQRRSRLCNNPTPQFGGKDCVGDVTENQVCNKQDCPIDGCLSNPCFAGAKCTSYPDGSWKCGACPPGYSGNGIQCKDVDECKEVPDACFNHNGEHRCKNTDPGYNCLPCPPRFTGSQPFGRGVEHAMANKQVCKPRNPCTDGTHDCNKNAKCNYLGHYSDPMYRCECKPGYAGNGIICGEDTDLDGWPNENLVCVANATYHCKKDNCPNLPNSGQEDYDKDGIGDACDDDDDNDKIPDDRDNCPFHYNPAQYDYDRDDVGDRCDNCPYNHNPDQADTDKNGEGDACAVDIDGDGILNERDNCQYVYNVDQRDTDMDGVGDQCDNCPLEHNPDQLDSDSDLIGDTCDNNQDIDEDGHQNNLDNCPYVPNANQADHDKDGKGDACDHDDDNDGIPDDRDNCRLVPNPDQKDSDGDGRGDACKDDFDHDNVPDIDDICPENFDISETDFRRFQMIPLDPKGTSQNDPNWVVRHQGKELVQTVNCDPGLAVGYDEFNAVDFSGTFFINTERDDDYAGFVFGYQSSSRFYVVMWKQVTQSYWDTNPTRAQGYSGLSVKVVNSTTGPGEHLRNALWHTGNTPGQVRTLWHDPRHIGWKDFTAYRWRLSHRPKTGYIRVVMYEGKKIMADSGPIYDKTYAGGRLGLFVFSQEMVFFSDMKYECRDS

Target: recombinant mouse thrombospondin-1 with a C-terminal 6His tag (mouse) (UniProt P35441)
Test: SPR; Biacore T200; rmTSP-1 captured by its C-terminal 6His tag on anti-histidine antibody amine-coupled to a CM5 chip (2931 RU); peptides injected for 120 s at 30 uL/min, 25 °C; running buffer 10 mM HEPES, 0.15 M NaCl, 0.05% surfactant P20, 5 mM CaCl2, pH 7.4; single injections at 1 mM; single-cycle kinetics at 15.625-250 uM; contact-time experiment (30-600 s) at 500 uM TAX2; two-state reaction model, apparent KD; both purified

binding: no binding (tested: 1 mM)
Binder: LSVDESKAQGIL [control scrambled peptide]
